Taken from: PubChem BioAssay AID686937 (Drosophila RNAi Screening Center, 2013)

Test: 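Genes whose loss weakens secretory pathway function in fly cells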 (primary screen)
System: Drosophila S2 cells expressing secreted horseradish peroxidase
Reagents: long dsRNA against Drosophila genes
Timing: about 5.5 days (5 days dsRNA, then 12 h reporter induction)
Conditions: reporter expression induced after 5 days of dsRNA, read 12 h later; inducer not stated
Read-out: 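Chemiluminescent measurement of peroxidase in the medium 12 h after reporter induction, following 5 days of dsRNA, given as a z-score per plate; higher means more secretion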
Direction: z-score: higher = more reporter secreted into medium
The screen tested about 23,000 reagents; shown is an unselected part of those that have a named target and a result. 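Reduced-secretion tags in replicate 1 do not always agree with the z-scores; no criterion for assigning the tags was given.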 Reagents against one gene are numbered here. Not all columns of the deposit are shown. No sequences are given here. Not stated in the record: the amount of reagent.

How did the screen score dikar #1?
z-score, replicate 1: 0.31

With dikar #2, what does the deposit list?
z-score, replicate 1: -0.67

What did the screen give for CG10311?
z-score, replicate 1: 0.21

For Rbp6 #1, how do the results read?
z-score, replicate 1: 0.04

How did the screen score Rbp6 #2?
z-score, replicate 1: 0.09

With Rbp6 #3, what does the deposit list?
z-score, replicate 1: 0.32

With Rbp6 #4, what does the deposit list?
z-score, replicate 1: 0.43

How did the screen score Rbp6 #5?
z-score, replicate 1: 0.22

With CG18281, how do the results read?
z-score, replicate 1: 0.24

With rumi, how do the results read?
z-score, replicate 1: 0.18

Which result is listed for CG15676?
z-score, replicate 1: -0.19

With Ptpmeg2 #1, what does the deposit list?
z-score, replicate 1: 0.39

With Ptpmeg2 #2, how do the results read?
z-score, replicate 1: 0.47

With Nop56, how do the results read?
z-score, replicate 1: 0.06

How did the screen score Cdlc2?
z-score, replicate 1: -0.26

What is on record for Ski6?
z-score, replicate 1: -0.38

What did the screen give for pim?
z-score, replicate 1: -1.89; phenotype, replicate 1: reduced secretion

What did the screen give for flz?
z-score, replicate 1: 0.45

With CG11858, what does the deposit list?
z-score, replicate 1: 0.24

With Rhau, what was measured?
z-score, replicate 1: 0.21

For CG10565, what was measured?
z-score, replicate 1: 0.08

What is on record for CG31792?
z-score, replicate 1: 0.1

With lncRNA:CR32553, what does the deposit list?
z-score, replicate 1: 0.11

With Dnali1, how do the results read?
z-score, replicate 1: 0.26

Which result is listed for CG30062?
z-score, replicate 1: -0.39

With CG13384, how do the results read?
z-score, replicate 1: 0.11

With ewg, what does the deposit list?
z-score, replicate 1: 0.37

For ACXD, what does the deposit list?
z-score, replicate 1: 0.27

What is on record for caz #1?
z-score, replicate 1: -0.88; phenotype, replicate 1: reduced secretion

Which result is listed for caz #2?
z-score, replicate 1: 0.12

With Spt7, what does the deposit list?
z-score, replicate 1: 0.26

Which result is listed for CG9517 (retired record) #1?
z-score, replicate 1: 0.18

For CG9517 (retired record) #2, what was measured?
z-score, replicate 1: 0.17

What did the screen give for CG32277?
z-score, replicate 1: 0.37

For CG15262, what does the deposit list?
z-score, replicate 1: 0.35

Which result is listed for Cdc37?
z-score, replicate 1: 0.08

With CG33631, how do the results read?
z-score, replicate 1: 0.2

What did the screen give for vanin-like?
z-score, replicate 1: 0.01

With Taf13, what was measured?
z-score, replicate 1: -0.66

What is on record for Mad?
z-score, replicate 1: -0.02

5 entries from above, ordered by “z-score, replicate 1”, descending.
CG32277 — z-score, replicate 1 = 0.37
CG15262 — z-score, replicate 1 = 0.35
Spt7 — z-score, replicate 1 = 0.26
CG9517 (retired record) #1 — z-score, replicate 1 = 0.18
CG9517 (retired record) #2 — z-score, replicate 1 = 0.17
